# Source: PubChem BioAssay AID493014 (National Center for Advancing Translational Sciences (NCATS), 2011)
# The other results are listed elsewhere or left out. Further columns of the screen follow, without active or inactive calls. The list favours compounds with an active or inconclusive main result. Potencies come from curve fits of mixed quality, noted in brackets.
# Experiment: qHTS Assay to Find Inhibitors of Chronic Active B-Cell Receptor Signaling
# Conditions: ABC-DLBCL IkBa-CBG/CBR reporter, luminescence ratio (green luciferase fused to IkBa over red control in TMD8 lymphoma cells), 4 h
# Outline: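 Cell line TMD8 (human ABC DLBCL), stably expressing tet-inducible CBG68-IkBa fusion and CBR; IMDM/0.5% FBS; cpd up to 46 uM; dox induction, 4 h, 37C/5% CO2; dual luminescence; green/red ratio; MG132 control.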
# [1] = measured here: CBR red luminescence, cell number
# [2] = measured here: IkBa-CBG green luminescence
smiles,measurement,setting,value
Oc1ccc(Br)cc1/C=N/n1c(COc2ccccc2)n[nH]c1=S,AC50,[1],"7.08 µM [rising, partial curve, poor fit]"
O=C(CCc1nnc(Cc2ccc3c(c2)OCO3)o1)N(CC1CCC1)CC1CCCO1 (configuration not stated),AC50,[1],"7.08 µM [rising, partial curve]"
O=C(/C=C/c1ccccc1Cl)c1ccccc(=O)c1O,AC50,[1],"23.1 µM [falling, single point]"
OC(CNCCC1C=Nc2ccccc21)Cn1c2ccc(Cl)cc2c2cc(Cl)ccc21 (configuration not stated),AC50,[1],"29.1 µM [falling, single point]"
CCN(CC)C(=O)[C@H]1C[C@H](CC(=O)NC/C=C(\C)CCC=C(C)C)C(=O)N2CCc3c([nH]c4cc(CCC(=O)N(C)C)ccc34)[C@]12C,AC50,[1],"18.4 µM [falling, single point]"
O=C(NCc1ccco1)C(c1ccccc1)N(CC1CCCO1)C(=O)Cn1nnc2ccccc21 (configuration not stated),AC50,[1],"6.31 µM [falling, single point]"
O=C(c1ccco1)N1N=C(c2cccs2)CC1c1ccc(F)cc1 (configuration not stated),AC50,[1],"10.3 µM [falling, partial curve, poor fit]"
Cn1c(SCC(=O)c2ccc(F)cc2)ncc(C(=O)Nc2ccccc2)c1=O,AC50,[1],"5.8 µM [rising, partial curve]"
Cc1ccc(/C=C/C(=O)c2nc3ccccc3[nH]2)cc1,AC50,[2],"20 µM [falling, partial curve, poor fit]"
O=C1CN(C(=O)COC(=O)c2ccc[n+]([O-])c2)c2ccccc2N1,AC50,[1],"10 µM [rising, partial curve]"
Cc1ccccc1OCc1nc(-c2ccccc2)no1,AC50,[1],"1.3 µM [rising, partial curve]"
Cc1ccc(NC(=O)COC(=O)Cn2c(C)csc2=O)c([N+](=O)[O-])c1,AC50,[1],"20.6 µM [rising, partial curve]"
Cc1cccc(NC(=S)N=Nc2c(O)n(CN3CCOCC3)c3ccccc23)c1C,AC50,[1],"8.2 µM [rising, partial curve]"
same,AC50,[2],"3.66 µM [falling, full curve]"
Cc1ccc(-c2nnc(-c3ccccc3S(=O)(=O)Cc3ccc(Cl)cc3)o2)cc1,AC50,[1],"35.5 µM [rising, single point]"
O=C1N=C(c2ccccc2)S/C1=C\c1cccs1,AC50,[1],"0.411 µM [falling, full curve, poor fit]"
CN(CC(=O)Nc1ccc(Cl)cc1)C1CCCCC1,AC50,[1],"2.51 µM [falling, full curve]"
CNS(=O)(=O)c1cccc(C(=O)OCC(=O)Nc2ccc(-c3nc4ccc(C)cc4s3)cc2)c1,AC50,[1],"3.16 µM [rising, partial curve, poor fit]"
Cc1cccc(CCNC(=O)CCc2nnc(CCc3ccccc3)o2)n1,AC50,[1],"6.31 µM [rising, partial curve, poor fit]"
same,AC50,[2],"3.16 µM [falling, single point]"
Cn1ccnc1SCC(=O)Nc1sccc1C#N,AC50,[1],"20 µM [rising, single point]"
CCC(=NCCc1ccc(OC)c(OC)c1)c1ccccc1O,AC50,[1],"0.708 µM [rising, full curve, poor fit]"
Cc1sc2cc3c(c(C(=O)c4ccccc4)[n+]2c1C)-c1cccc2cccc-3c12,AC50,[1],"16.4 µM [falling, partial curve]"
Cc1c(N=Nc2c(-c3ccc([N+](=O)[O-])cc3)[nH]n(C(N)=S)c2=O)cccc1[N+](=O)[O-],AC50,[1],"2 µM [falling, full curve, poor fit]"
same,AC50,[2],"2.82 µM [falling, full curve]"
CN1CCc2ccccc2C1Cc1ccccc1NC(=O)c1sc2ccccc2c1Cl (configuration not stated),AC50,[1],"12.6 µM [falling, single point]"
C=CCn1c(SCC(=O)c2ccc(O)c(O)c2)nnc1-c1cccc(OC)c1,AC50,[1],"5.8 µM [falling, full curve]"
COc1ccc(C2=NOC(C(=O)NCc3ccccc3)C2)cc1 (configuration not stated),AC50,[2],"2.51 µM [falling, full curve, poor fit]"
Cc1cccn2c(=O)c(/C=C(\C#N)C(N)=O)c(N3CCCCCC3)nc12,AC50,[1],"0.1 µM [falling, full curve, poor fit]"
Cc1ccc(-n2nnnc2/C=C\Nc2cc(C)on2)cc1,AC50,[1],"8.2 µM [rising, partial curve, poor fit]"
COc1ccccc1/C=C/C(=O)OCC(=O)Nc1cc(C(F)(F)F)ccc1N1CCOCC1,AC50,[1],"18.4 µM [rising, single point]"
COc1ccc(N2CCN(CCCNC(=O)C3(S(=O)(=O)c4ccc(Cl)cc4)CC3)CC2)cc1,AC50,[1],"0.366 µM [falling, full curve, poor fit]"
same,AC50,[2],"0.82 µM [rising, full curve, poor fit]"
CCC(C)/C(C)=N/NC(=O)c1ccc(CSc2nc3ccccc3s2)cc1 (configuration not stated),AC50,[1],"8.2 µM [falling, single point]"
O=C(Nc1nnc(-c2ccccc2)s1)c1cccc(S(=O)(=O)N2CCOCC2)c1,AC50,[1],"1.84 µM [falling, partial curve, poor fit]"
CCN(Cc1nc2ccccc2c(=O)[nH]1)C(=O)COc1ccccc1Cc1ccccc1,AC50,[1],"29.1 µM [falling, single point]"
Nc1[nH]nc2nc(-c3ccccc3)[nH]c(=O)c12,AC50,[1],"10 µM [falling, partial curve]"
COc1ccccc1N1CC(C(=O)NC2CCCCCC2)CC1=O (configuration not stated),AC50,[1],"11.6 µM [falling, partial curve, poor fit]"
Cc1ccc(N2C(=O)N(CC(=O)Nc3ccccc3C)C(=O)C2C)cc1 (configuration not stated),AC50,[1],"25.1 µM [rising, single point]"
CCN(C(=O)COC(=O)c1ccc2[nH]c3c(c2c1)CCCC3)C1CCS(=O)(=O)C1 (configuration not stated),AC50,[1],"31.6 µM [falling, partial curve, poor fit]"
CCOC(=O)C1C(=O)NC(N2CCN(c3ccccc3)CC2)=NC1c1ccccc1 (configuration not stated),AC50,[1],"16.4 µM [rising, partial curve, poor fit]"
CN(/N=C/c1ccc(N(C)C)cc1)C1=NS(=O)(=O)c2ccccc21,AC50,[1],"22.4 µM [falling, single point]"

# 2 entries picked at random from those above:
smiles,measurement,setting,value
COc1ccc(C2=NOC(C(=O)NCc3ccccc3)C2)cc1 (configuration not stated),AC50,[2],"2.51 µM [falling, full curve, poor fit]"
O=C(c1ccco1)N1N=C(c2cccs2)CC1c1ccc(F)cc1 (configuration not stated),AC50,[1],"10.3 µM [falling, partial curve, poor fit]"
